Entries after “also recorded” stand apart in the source; their conditions may differ. For at least one compound, name, drawing or mass did not settle the structure.
Legend:
adult male Wistar rats [1] = experiment: Intravenous cocaine self-administration under a multiple, alternating schedule of food reinforcement and cocaine self-administration; format: in vivo, rat; conditions: for cocaine self-administration (number of infusions): ip pretreatment; for cocaine self-administration: pretreatment with the drug alone, general statement
adult male Wistar rats [2] = experiment: Cue-induced reinstatement of extinguished cocaine seeking (model of relapse); format: in vivo, rat; conditions: pretreatment with the drug alone, general statement
Description: In our model, rats were exposed to alternating 15-minute periods of access to cocaine self-administration and food reinforcement. Food was used to control for potential nonspecific, ataxis effects of the drugs and combinations. […] The other preclinical model we used is the cue-induced reinstatement of extinguished cocaine seeking model of relapse. In this model, rats are trained to self-administer cocaine and the ability of conditioned cues in the environment to reinstate extinguished responding is assessed and taken as a measure of relapse.
The experiments described herein were designed to investigate whether or not drug combinations identified as effective in reducing cocaine self-administration would also block the ability of conditioned cues to reinstate extinguished cocaine-seeking behavior. Adult male Wistar rats were implanted with chronic jugular catheters and trained to self-administer cocaine (0.25 mg/kg/infusion) by pressing one of the response levers in the experimental chamber (i.e., the “active” or “cocaine” lever) under a fixed-ratio four (FR4) schedule of reinforcement during daily 2-hour sessions conducted 5 days per week. At the start of each session, both levers were extended into the chamber and the stimulus light above the active lever was illuminated to indicate the availability of cocaine. […] A 20-second timeout period followed each infusion. […]

O=C1Nc2ccc(Cl)cc2C(c2ccccc2)=NC1O (stereo not drawn) [oxazepam]
cocaine self-administration (number of infusions) (adult male Wistar rats [1]; high dose of the drug alone): reduced cocaine self-administration
cocaine self-administration (number of infusions) (adult male Wistar rats [1]; low, ineffective dose of the drug alone): did not significantly affect cocaine self-administration; also recorded: no longer affected cocaine self-administration
cocaine self-administration (adult male Wistar rats [1]): decrease
reinstatement of extinguished cocaine seeking (adult male Wistar rats [2]): decrease

CNC1=Nc2ccc(Cl)cc2C(c2ccccc2)=[N+]([O-])C1 [chlordiazepoxide]
cocaine self-administration (adult male Wistar rats [1]): decrease
reinstatement of extinguished cocaine seeking (adult male Wistar rats [2]): decrease

From US9415107B2, “Compositions and methods for the treatment of addiction and other neuropsychiatric disorders” (priority 2005, dated 2016)
